This note sets out measurements from the supplement of paper PMC7580552.

Counter-ions that a name gives are not always drawn. ± gives the standard deviation of the averaged measurements. The list shows a part of the results. Baselines shift from plate to plate; read single values as rough.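 A K-12 lab model strain is cultured statically in 96-well plates; biofilm is measured as the absorbance of crystal violet stain retained in the wells. Drugs counted as candidate specific biofilm blockers if they strongly reduced staining while slowing planktonic growth by under 70%.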

The test deals with Escherichia coli W3110. The experiment in a line: biofilm formation (crystal violet staining) relative to untreated control; higher = more biofilm. Conditions: 10 µM; 20-24 h; 30 °C; TB.
Take `CCC[C@@H]1C[C@@H](C(=O)N[C@@H]([C@H]2O[C@H](SC)[C@H](O)[C@@H](O)[C@H]2O)[C@@H](C)O)N(C)C1` [Lincomycin hydrochloride]: the biofilm formation turned out to be 77%.

`CCN(CC)CCN[C@@H](C(=O)OCCC(C)C)c1ccccc1` [Camylofine chlorhydrate]: the biofilm formation worked out at 73%.

Turning to `CN1CCCN=C1/C=C/c1cccs1` [Pyrantel tartrate], the biofilm formation was 83%.

`C#C[C@]1(O)CC[C@H]2[C@@H]3CCC4=Cc5oncc5C[C@]4(C)[C@H]3CC[C@@]21C` [Danazol] had a biofilm formation of 46%.

On to `O=C(Nc1ccc([N+](=O)[O-])cc1Cl)c1cc(Cl)ccc1O` [Niclosamide], for which the biofilm formation turned out to be 72%.

In turn, `CCOc1ccc(Cc2nccc3cc(OCC)c(OCC)cc23)cc1OCC` [Ethaverine hydrochloride] showed a biofilm formation of 85%.

Turning to `CC12CC3CC(C)(C1)CC(N)(C3)C2` [Memantine Hydrochloride], the biofilm formation was determined as 78%.

In the case of `CCN1CCCC1CNC(=O)c1cc(S(N)(=O)=O)ccc1OC` (stereo unspecified) [Sulpiride], the biofilm formation came out at 62%.

Compound `COc1ccc(-c2ccc3cc(C(=O)O)ccc3c2)cc1C12CC3CC(CC(C3)C1)C2` [Adapalene] had a biofilm formation of 44%.

For the compound `O=C(O)c1cccnc1` [Niacin], the biofilm formation turned out to be 72%.

`CCCCc1oc2ccccc2c1C(=O)c1cc(I)c(OCCN(CC)CC)c(I)c1` [Amiodarone hydrochloride] returned a biofilm formation of 77%.

The compound `O=c1[nH]c(=O)n([C@H]2C[C@H](O)[C@@H](CO)O2)cc1I` [Idoxuridine] registered a biofilm formation of 74%.

As to `Cc1cccc(N(C)C(=S)Oc2ccc3ccccc3c2)c1` [Tolnaftate], the biofilm formation is 85%.

On to `CC1(C)O[C@@H]2C[C@H]3[C@@H]4C[C@H](F)C5=CC(=O)CC[C@]5(C)[C@H]4[C@@H](O)C[C@]3(C)[C@]2(C(=O)CO)O1` [Flurandrenolide], for which the biofilm formation came out at 69%.

Regarding `NNC(=O)c1ccncc1` [Isoniazid], the biofilm formation worked out at 83%.

In turn, `CC[C@H](c1ccc(O)cc1)[C@@H](CC)c1ccc(O)cc1` [Hexestrol] gave a biofilm formation of 61%.

`Cc1c(Nc2ncccc2C(=O)O)cccc1C(F)(F)F` [Flunixin meglumine] yielded a biofilm formation of 86%.

`C[C@H](CS)C(=O)N1CCC[C@H]1C(=O)O` [Captopril] registered a biofilm formation of 74%.

Take `CN(Cc1cc(Br)cc(Br)c1N)C1CCCCC1` [Bromhexine hydrochloride]: the biofilm formation is 86%.

For the compound `CC1(C)O[C@@H]2C[C@H]3[C@@H]4C[C@H](F)C5=CC(=O)C=C[C@]5(C)[C@H]4[C@@H](O)C[C@]3(C)[C@]2(C(=O)CO)O1` [Flunisolide], the biofilm formation amounted to 83.5 ± 6.4%.

In the case of `NCCc1ccc(O)c(O)c1` [Dopamine hydrochloride], the biofilm formation stood at 85%.

Compound `CC(C)C(=O)c1c(C(C)C)nn2ccccc12` [Ibudilast] showed a biofilm formation of 93%.

Compound `CC(C)NCC(O)COc1cccc2[nH]ccc12` (stereo unspecified) [Pindolol] came in with a biofilm formation of 72%.

In the case of `OC(CCN1CCCC1)(c1ccccc1)C1CCCCC1` (stereo unspecified) [Procyclidine hydrochloride], the biofilm formation stood at 62%.

Compound `CC(CN(C)C)CN1c2ccccc2CCc2ccccc21` (stereo unspecified) [Trimipramine maleate salt] displayed a biofilm formation of 65%.

As for `CCCCOc1ccc(C(=O)CCN2CCCCC2)cc1` [Dyclonine hydrochloride], the biofilm formation stood at 68%.

For `Cn1nnc2c(C(N)=O)ncn2c1=O` [Temozolomide], the biofilm formation came out at 76%.

The compound `CN1[C@@H]2CC[C@H]1C[C@@H](OC(=O)C(O)c1ccccc1)C2` (mixture of isomers) [Homatropine hydrobromide (R,S)] had a biofilm formation of 76%.

As for `CC(C)(C)CC(C)(C)c1ccc(OCCOCC[N+](C)(C)Cc2ccccc2)cc1` [Benzethonium chloride], the biofilm formation came out at 49%.

In the case of `CC(C)(C)NC(=O)[C@H]1CC[C@H]2[C@@H]3CC[C@H]4NC(=O)C=C[C@]4(C)[C@H]3CC[C@]12C` [Finasteride], the biofilm formation turned out to be 79%.

On to `Nc1nc(N)c2nc(-c3ccccc3)c(N)nc2n1` [Triamterene], for which the biofilm formation was found to be 71%.
